These results are taken from patent US11123413B2, “Carbapenemases for use with antibiotics for the protection of the intestinal microbiome” (priority 2015, dated 2021).

Values joined by “and” are separate entries in the source; they are usually repeats but may differ in a detail not shown here. Equal values may be shown once.

The data set can be described thus: P2A concentration estimate and specific activity in cell lysates (CENTA assay, P2A protein standard). The format is biochemical. The following applies: BLR (DE3) P2A Clone 1 lysate, replicates 1 and 2. The method, then: To achieve an estimate of the amount of P2A protein in each of the lysates, dilutions of the lysates (5 ul, 2.5 ul, 1.3 ul, and 0.63 ul) were evaluated on SDS/PAGE compared to dilutions of a purified P2A standard protein (2.0 ug, 1.0 ug, 0.5 ug, 0.25 ug, 0.13 ug). Based on the P2A protein band intensities, an estimate of the amount of P2A protein in each of the lysates was obtained. The biological activity of the P2A protein in the cell lysates under the different lysing conditions was evaluated using the CENTA chromogenic assay compared to the biological activity of the P2A protein standard. The biological activity was normalized based on the P2A protein concentration estimate and an estimated P2A specific activity was obtained. […] The P2A expression cassette without the leader will be used for future studies.
Based on the P2A protein band intensities, an estimate of the amount of P2A protein in each of the lysates was obtained. The biological activity of the P2A protein in these cell lysates was evaluated using the CENTA chromogenic assay compared to the biological activity of the P2A protein standard. The biological activity was normalized based on the P2A protein concentration estimate and an estimated P2A specific activity was obtained.

B1: P2A: broad spectrum carbapenemase, class B metallo-enzyme requiring zinc, SEQ ID NO: 37; P2A-21 = product of strain SYT-PP0602-21 (protein)
chain: ETGTISISQLNKNVWVHTELGYFNGEAVPSNGLVLNTSKGLVLVDSSWDNKLTKELIEMVEKKFQKRVTDVIITHAHADRIGGITALKERGIKAHSTALTAELAKNSGYEEPLGDLQTITSLKFGNTKVETFYPGKGHTEDNIVVWLPQYQILAGGCLVKSAEAKDLGNVADAYVNEWSTSIENVLKRYGNINSVVPGHGEVGDKGLLLHTLDLLK
B1: the “Concentration” value (induction 18 o/n) was 0.2 mg/mL and 0.1 mg/mL; the “Concentration” value (induction 25 on) is recorded as 0.2 mg/mL; the “Concentration” value (induction 37 3 hrs) was 0.1 mg/mL.
